# Library screening results

Amino acid sequences for entries named in this document (tags omitted).
UniProt E9BF75, entry or part of it: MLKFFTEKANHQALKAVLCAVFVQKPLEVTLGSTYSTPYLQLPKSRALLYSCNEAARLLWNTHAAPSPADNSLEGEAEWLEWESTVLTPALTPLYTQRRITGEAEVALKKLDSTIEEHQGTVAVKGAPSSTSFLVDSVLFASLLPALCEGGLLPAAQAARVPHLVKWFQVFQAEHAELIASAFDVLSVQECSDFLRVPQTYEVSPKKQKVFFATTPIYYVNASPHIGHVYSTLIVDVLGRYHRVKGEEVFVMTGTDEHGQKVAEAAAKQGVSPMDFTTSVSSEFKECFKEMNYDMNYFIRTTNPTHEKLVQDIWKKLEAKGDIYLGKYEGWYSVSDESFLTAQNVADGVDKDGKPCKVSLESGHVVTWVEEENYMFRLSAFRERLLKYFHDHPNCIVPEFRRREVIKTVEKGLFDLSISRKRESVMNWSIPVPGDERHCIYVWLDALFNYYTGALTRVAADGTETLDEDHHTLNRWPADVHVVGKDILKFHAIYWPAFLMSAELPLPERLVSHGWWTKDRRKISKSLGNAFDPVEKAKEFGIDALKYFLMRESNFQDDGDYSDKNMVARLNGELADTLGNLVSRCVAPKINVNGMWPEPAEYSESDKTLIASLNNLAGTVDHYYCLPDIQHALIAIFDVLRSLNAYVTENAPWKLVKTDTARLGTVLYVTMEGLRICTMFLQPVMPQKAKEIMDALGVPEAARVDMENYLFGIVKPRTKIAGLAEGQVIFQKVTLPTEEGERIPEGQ

The values are deposited in ChEMBL (CHEMBL3988442, “University of Dundee, Small-Polar-MMV Screening Library” (2021)).

All values are in %.
The controls that fix the scale are not given in the record; negative values are as filed.
This is an unselected part of the compounds tested.

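Primary screen of methionyl-tRNA synthetase; the read-out is not stated. Target: Methionyl-tRNA synthetase (putative), Leishmania donovani (UniProt E9BF75). The test concentration is not given. Values are per cent inhibition. Size under these conditions: about 68,000 compounds, about 24 of them at 50% or above in at least one test.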

* Cc1cc2c(cc1C)C(NC1CC1)CCCO2 (stereo not shown) : 14.49%
* CCS(=O)(=O)c1nnc([C@@H](N)Cc2ccccc2)o1 : 4.065%
* CN(C)[C@@H]1CCN(S(C)(=O)=O)[C@H]1Cc1ccccc1 : 11.48%
* COc1ccc(COCC(O)CNC(=O)c2cccc(OC)c2)cc1 (stereo not shown) : 14.04%
* CC(C)(C)NC(=O)C1CSCN1S(=O)(=O)c1ccc(F)cc1 (stereo not shown) : 18.06%
* COc1ccc(C(=O)O)c(OCC(=O)NC(C)c2ccc(F)cc2)c1 (stereo not shown) : 10.11%
* O=C1CCC(=O)N1c1nn(Cc2cccc(F)c2)cc1Cl : 8.378%
* COCc1ncc(-c2nccn2CCS(C)(=O)=O)cn1 : 15.26%
* CCOC(CC)C(=O)NCc1ccnc(Oc2ccc(F)cc2)c1 (stereo not shown) : 19.93%
* N#Cc1ccc(N2CCCN(CC(=O)N3CCC3)CC2)cc1 : 8.564%
* CN(C1CCN(C(=O)NCCc2ccc(F)cc2F)CC1)S(C)(=O)=O : -0.7752%
* CC(C)CNC(=O)CC1(Cn2cnnn2)CCCCC1 : 9.329%
* CCc1cc(C(=O)N2CCC(Nc3ccc(C)nn3)CC2)sc1C : 18.88%
* NCC(CO)Cc1ccc(OC(F)(F)F)cc1 (stereo not shown) : 8.659%
* CCCC1CN(CCOc2ccccc2)C(=O)c2cccnc2O1 (stereo not shown) : 1.918%
* CC(C)(C)CNC1(Cc2cc(C(C)(C)O)on2)COC1 : 8.475%
* CC(C)n1ccnc1C1CCN(C(=O)c2cc[nH]n2)CC1 : 11.85%
* CCc1noc(C(C)N2CCC(O)CC2)n1 (stereo not shown) : 12.43%
* CCC[C@@H]1CN(S(=O)(=O)c2ccc(OC)c(OC)c2)C[C@H]1NC(C)=O : 10.65%
* COc1c(C)cnc(CNC(=O)CCc2nc3ccccc3[nH]2)c1C : 17.18%
* CC(C)CN1C(=O)C2(CCN(CC3CCOCC3)C2)c2ccccc21 (stereo not shown) : 14.92%
* CC1CN(C)CCN1C(=O)Nc1nc(-c2cccn2C)cs1 (stereo not shown) : 14.72%
* CCN(CC)CCN1CCO[C@H]2[C@@H](OCc3ccncc3)CC[C@@H]21 : 15.96%
* Cc1csc(CN(C)CCCOc2cccc(C#N)c2)n1 : 8.844%
* CCOCC1CN(C(=O)c2ccco2)Cc2cnn(C)c21 (stereo not shown) : 5.753%
* CC(C)NC(=O)C1CN(C(=O)Nc2ccccc2)CC12CCOCC2 (stereo not shown) : 6.438%
* O=C(O)C1(n2cccn2)CCN(Cc2nc(-c3ccccc3)no2)CC1 : 5.928%
* O=C(CN1CCC(c2cc(=O)n3c(n2)CCCCC3)C1)N1CCCCC1 (stereo not shown) : 10.93%
* CS(=O)(=O)Cc1ccc(OCc2ccc(F)cc2)cc1 : 8.521%
* CCCn1ccc(C(=O)N2CCOC(c3nc(-c4cccs4)no3)C2)n1 (stereo not shown) : 19.23%
* Cc1csc(N2CCCN(C(=O)c3cccs3)CC2)n1 : 8.635%
* Cn1cnnc1C1CCN(C(=O)CCOc2ccc(Cl)cc2)CC1 : 4.819%
* O=C(NCc1cc2n(n1)CCCN(Cc1ccc(CO)o1)C2)C1CCC1 : 3.344%
* COc1ccc(OC2CCN(C(=O)c3ccc(C)[nH]c3=O)CC2)cc1 : 13.11%
* COc1ncccc1C1CC(=O)Nc2cc(NS(C)(=O)=O)ccc21 (stereo not shown) : 10.45%
* Cc1cccc(C)c1Oc1ncccc1CNC(=O)C1COC(=O)N1 (stereo not shown) : 14.24%
* O=C(NCCCOCC1CC1)Nc1ccc(F)cc1 : 1.955%
* COCc1ncc(CN2CCC(Oc3ccc(OC)cc3)CC2)cn1 : 16.82%
* COCc1noc(CCC(=O)c2ccc3c(c2)OCCO3)n1 : 13.24%
* COC(=O)c1cccc(CNC(=O)c2cc(C(C)C)n(C)n2)c1 : 12.37%
* Cc1nc(N(C)C)nc(NCCc2c[nH]cn2)c1C : 4.673%
* COCC1CC2(CCN(Cc3ccc(C)o3)CC2)CN1C(C)C (stereo not shown) : 4.194%
* Cc1cnn(CC2CCCN2C(=O)c2cccc(-n3cnnn3)c2)c1 (stereo not shown) : 1.408%
* Cc1ccnn1-c1ccc(C(=O)N2CCCC(n3ccnc3)C2)cc1 (stereo not shown) : 13.33%
* CN(Cc1ccc(O)cc1)C(=O)NC1CCCN(c2ncccn2)C1 (stereo not shown) : 24.04%
* CN(CC(=O)NCCc1ccccn1)C(=O)c1cccs1 : 7.43%
* CN(CCNC(=O)Nc1ccncc1)C1CCCCC1 : 1.961%
* CCC(Nc1ncccn1)c1ccc(OC)cc1 (stereo not shown) : 11.98%
* COc1ccc(S(=O)(=O)NCC(c2cccn2C)N(C)C)cc1F (stereo not shown) : 10.84%
* O=C(Cc1ccc(F)cc1)NCc1ccc(C(=O)O)o1 : 10.86%
* Cc1cccc2nc(C(=O)N3CCC4(CCC(=O)N(C)C4)CC3)c(F)n12 : 19.24%
* Cc1ccc(CN2CC[C@H]3CO[C@H](CN(C)C)[C@H]3C2)o1 : 15.13%
* Cc1cc(CN2CCN(c3ccnc(-c4ccccc4)n3)CC2)no1 : 18.82%

Once more, the final 6:

{"compound": "CCC(Nc1ncccn1)c1ccc(OC)cc1", "stereo": "stereo not shown", "Inhibition": 11.98}
{"compound": "COc1ccc(S(=O)(=O)NCC(c2cccn2C)N(C)C)cc1F", "stereo": "stereo not shown", "Inhibition": 10.84}
{"compound": "O=C(Cc1ccc(F)cc1)NCc1ccc(C(=O)O)o1", "Inhibition": 10.86}
{"compound": "Cc1cccc2nc(C(=O)N3CCC4(CCC(=O)N(C)C4)CC3)c(F)n12", "Inhibition": 19.24}
{"compound": "Cc1ccc(CN2CC[C@H]3CO[C@H](CN(C)C)[C@H]3C2)o1", "Inhibition": 15.13}
{"compound": "Cc1cc(CN2CCN(c3ccnc(-c4ccccc4)n3)CC2)no1", "Inhibition": 18.82}